± gives the standard deviation of the averaged measurements. Some of the results follow.

Sequences of proteins named here, by UniProt entry; tags and fusion partners are left off. A change or cut given only in a name is not applied to a line headed by its entry.
UniProt P51580: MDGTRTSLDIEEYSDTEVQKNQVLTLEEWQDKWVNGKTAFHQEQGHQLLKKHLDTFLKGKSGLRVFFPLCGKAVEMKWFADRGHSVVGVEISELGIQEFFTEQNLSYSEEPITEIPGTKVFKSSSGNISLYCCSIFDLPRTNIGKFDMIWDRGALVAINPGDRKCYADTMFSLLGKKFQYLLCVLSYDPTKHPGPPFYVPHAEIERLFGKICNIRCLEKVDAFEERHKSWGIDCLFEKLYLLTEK
UniProt P52209: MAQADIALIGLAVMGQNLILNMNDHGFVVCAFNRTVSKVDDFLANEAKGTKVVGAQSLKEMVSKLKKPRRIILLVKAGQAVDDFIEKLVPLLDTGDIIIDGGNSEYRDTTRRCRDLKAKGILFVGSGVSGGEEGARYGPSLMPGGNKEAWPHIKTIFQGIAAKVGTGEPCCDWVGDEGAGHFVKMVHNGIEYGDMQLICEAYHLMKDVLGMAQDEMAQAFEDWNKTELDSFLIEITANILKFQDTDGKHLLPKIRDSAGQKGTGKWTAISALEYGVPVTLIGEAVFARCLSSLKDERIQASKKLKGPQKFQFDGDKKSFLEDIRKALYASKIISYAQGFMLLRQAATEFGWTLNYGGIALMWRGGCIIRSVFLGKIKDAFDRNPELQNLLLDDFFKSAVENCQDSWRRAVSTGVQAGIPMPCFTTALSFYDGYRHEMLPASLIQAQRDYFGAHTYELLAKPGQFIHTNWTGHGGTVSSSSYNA
UniProt P56134: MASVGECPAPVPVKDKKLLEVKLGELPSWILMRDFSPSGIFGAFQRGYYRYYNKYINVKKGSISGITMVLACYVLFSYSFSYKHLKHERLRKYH
UniProt P50416: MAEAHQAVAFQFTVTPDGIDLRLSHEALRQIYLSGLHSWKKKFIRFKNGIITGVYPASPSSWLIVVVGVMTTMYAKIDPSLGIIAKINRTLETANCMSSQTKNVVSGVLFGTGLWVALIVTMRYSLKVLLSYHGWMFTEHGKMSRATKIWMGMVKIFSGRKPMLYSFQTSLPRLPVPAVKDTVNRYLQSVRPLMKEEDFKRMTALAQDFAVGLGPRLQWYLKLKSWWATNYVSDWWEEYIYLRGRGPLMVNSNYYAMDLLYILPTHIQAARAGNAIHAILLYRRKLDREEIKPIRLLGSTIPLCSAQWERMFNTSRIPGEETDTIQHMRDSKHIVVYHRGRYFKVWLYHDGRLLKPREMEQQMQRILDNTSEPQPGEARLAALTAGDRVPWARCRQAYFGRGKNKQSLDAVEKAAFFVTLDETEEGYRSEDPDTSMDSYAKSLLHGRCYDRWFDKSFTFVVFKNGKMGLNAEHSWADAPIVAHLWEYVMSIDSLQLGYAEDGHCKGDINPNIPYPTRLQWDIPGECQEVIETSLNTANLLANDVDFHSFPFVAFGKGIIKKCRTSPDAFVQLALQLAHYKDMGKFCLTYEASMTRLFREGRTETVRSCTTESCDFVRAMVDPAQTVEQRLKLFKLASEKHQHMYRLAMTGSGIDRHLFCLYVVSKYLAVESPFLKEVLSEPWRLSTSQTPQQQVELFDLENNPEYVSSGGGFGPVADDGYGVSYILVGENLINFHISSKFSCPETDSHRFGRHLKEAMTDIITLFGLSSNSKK
UniProt P55769: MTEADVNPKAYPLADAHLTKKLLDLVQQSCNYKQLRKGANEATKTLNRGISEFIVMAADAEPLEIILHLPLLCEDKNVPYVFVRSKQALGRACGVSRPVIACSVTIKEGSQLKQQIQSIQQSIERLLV
UniProt P61011: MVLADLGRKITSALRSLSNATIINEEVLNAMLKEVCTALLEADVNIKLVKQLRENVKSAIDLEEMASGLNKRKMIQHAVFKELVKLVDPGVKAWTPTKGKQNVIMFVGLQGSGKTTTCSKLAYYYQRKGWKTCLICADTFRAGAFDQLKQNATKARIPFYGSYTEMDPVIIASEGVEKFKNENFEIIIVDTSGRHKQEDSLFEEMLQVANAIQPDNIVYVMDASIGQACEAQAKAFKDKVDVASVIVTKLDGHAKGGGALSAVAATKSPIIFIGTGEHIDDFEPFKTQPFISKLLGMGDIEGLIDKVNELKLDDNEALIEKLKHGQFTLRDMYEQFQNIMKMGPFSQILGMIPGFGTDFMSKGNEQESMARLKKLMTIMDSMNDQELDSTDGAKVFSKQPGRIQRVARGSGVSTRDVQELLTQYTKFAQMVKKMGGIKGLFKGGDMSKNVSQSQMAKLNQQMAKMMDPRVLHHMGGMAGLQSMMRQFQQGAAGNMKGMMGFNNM
UniProt P61026: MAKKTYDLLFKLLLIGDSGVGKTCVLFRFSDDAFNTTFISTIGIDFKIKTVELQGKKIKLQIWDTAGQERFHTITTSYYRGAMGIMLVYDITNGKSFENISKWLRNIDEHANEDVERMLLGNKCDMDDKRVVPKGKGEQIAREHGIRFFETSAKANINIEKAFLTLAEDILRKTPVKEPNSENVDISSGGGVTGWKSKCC
UniProt P84103: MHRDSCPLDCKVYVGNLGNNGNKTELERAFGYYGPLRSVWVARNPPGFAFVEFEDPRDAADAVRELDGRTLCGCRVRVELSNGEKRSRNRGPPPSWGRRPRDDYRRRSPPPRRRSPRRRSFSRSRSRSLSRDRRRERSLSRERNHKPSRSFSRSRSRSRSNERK
UniProt P50552: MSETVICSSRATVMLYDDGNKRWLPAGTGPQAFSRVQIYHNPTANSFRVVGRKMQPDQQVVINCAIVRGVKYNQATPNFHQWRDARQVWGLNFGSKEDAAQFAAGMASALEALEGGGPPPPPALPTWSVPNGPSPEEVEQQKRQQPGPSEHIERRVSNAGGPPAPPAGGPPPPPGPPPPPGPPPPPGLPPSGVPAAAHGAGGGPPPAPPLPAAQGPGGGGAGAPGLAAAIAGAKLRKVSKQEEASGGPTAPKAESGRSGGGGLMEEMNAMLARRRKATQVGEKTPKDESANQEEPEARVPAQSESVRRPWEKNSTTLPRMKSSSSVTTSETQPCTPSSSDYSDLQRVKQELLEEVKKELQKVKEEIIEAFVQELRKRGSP
UniProt P61163, whole entry: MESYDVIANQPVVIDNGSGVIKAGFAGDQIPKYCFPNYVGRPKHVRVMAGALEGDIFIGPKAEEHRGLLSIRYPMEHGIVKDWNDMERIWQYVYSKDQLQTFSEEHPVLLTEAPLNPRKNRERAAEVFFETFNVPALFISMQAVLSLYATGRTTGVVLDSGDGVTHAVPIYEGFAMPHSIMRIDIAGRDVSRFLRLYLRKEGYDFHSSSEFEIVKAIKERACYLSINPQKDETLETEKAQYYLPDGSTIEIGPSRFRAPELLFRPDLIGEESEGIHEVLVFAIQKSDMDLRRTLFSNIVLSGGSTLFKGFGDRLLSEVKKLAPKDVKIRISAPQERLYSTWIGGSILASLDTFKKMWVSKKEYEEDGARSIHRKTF
UniProt P63151: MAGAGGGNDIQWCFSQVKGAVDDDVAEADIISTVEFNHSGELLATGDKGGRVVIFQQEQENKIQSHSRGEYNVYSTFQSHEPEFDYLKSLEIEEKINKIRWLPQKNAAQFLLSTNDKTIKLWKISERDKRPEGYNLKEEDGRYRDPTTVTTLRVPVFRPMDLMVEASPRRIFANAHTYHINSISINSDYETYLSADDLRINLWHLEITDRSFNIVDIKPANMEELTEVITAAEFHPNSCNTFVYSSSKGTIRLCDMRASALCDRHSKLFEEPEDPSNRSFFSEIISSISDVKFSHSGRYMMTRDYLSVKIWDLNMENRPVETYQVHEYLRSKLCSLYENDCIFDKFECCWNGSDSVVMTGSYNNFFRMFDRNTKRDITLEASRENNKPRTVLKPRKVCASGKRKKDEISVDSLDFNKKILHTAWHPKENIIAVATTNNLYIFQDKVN
UniProt P52655, whole entry: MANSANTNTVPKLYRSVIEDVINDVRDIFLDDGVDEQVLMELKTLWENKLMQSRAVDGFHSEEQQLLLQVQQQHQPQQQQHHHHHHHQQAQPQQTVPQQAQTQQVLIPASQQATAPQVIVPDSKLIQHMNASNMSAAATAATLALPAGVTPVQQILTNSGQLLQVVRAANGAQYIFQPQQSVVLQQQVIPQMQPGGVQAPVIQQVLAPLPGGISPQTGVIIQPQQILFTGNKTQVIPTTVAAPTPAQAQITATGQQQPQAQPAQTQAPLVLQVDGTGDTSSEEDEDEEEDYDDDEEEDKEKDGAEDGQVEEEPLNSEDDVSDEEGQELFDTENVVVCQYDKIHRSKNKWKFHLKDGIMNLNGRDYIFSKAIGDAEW
UniProt P61019: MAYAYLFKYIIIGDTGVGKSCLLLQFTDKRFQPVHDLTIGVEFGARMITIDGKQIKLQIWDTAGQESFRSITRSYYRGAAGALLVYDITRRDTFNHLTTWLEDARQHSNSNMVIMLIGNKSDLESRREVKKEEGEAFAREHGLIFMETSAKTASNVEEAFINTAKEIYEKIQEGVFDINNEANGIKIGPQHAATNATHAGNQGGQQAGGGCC
UniProt P55060: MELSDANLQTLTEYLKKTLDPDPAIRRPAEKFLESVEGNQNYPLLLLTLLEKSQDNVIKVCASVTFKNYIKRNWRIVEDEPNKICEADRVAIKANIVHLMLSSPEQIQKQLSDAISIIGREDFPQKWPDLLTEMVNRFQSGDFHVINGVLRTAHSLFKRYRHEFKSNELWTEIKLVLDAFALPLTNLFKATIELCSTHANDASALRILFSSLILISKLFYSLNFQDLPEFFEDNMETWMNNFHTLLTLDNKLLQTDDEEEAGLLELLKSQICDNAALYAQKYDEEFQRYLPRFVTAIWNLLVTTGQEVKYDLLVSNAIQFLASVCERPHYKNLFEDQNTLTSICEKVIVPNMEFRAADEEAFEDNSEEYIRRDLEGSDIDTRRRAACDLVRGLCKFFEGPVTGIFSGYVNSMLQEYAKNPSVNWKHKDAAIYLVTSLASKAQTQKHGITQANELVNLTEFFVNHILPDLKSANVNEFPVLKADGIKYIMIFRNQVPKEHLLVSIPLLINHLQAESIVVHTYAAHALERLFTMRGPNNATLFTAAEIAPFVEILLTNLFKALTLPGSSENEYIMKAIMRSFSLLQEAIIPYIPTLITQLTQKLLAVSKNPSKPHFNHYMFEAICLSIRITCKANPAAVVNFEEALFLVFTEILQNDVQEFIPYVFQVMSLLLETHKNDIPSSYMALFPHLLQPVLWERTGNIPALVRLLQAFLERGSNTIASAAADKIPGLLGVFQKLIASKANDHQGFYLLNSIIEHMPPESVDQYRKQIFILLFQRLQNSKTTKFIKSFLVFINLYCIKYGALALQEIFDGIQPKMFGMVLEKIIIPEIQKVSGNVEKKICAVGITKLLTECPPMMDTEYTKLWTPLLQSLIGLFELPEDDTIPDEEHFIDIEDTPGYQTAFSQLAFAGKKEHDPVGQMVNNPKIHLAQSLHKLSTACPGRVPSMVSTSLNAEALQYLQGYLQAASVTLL
UniProt P61962: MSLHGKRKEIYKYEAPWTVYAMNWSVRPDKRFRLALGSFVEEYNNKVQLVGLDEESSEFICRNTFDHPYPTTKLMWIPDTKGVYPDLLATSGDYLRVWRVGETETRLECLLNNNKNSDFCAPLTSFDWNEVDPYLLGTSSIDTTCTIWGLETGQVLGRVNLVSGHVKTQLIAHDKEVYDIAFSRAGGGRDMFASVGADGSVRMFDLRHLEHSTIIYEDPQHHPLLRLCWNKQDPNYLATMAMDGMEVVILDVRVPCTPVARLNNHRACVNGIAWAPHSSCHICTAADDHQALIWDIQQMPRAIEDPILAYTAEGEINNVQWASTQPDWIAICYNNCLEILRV
UniProt P78406: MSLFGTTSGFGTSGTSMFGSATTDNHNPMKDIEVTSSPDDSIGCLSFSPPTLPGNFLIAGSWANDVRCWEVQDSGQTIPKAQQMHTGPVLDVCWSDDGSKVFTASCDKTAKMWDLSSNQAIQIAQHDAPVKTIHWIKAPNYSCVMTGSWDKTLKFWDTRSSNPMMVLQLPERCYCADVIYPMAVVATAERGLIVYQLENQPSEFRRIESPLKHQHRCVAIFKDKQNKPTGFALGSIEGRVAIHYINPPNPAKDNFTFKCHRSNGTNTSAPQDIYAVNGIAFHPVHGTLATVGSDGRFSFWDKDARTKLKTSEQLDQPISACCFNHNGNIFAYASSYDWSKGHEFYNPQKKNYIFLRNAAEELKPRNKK
UniProt P53677: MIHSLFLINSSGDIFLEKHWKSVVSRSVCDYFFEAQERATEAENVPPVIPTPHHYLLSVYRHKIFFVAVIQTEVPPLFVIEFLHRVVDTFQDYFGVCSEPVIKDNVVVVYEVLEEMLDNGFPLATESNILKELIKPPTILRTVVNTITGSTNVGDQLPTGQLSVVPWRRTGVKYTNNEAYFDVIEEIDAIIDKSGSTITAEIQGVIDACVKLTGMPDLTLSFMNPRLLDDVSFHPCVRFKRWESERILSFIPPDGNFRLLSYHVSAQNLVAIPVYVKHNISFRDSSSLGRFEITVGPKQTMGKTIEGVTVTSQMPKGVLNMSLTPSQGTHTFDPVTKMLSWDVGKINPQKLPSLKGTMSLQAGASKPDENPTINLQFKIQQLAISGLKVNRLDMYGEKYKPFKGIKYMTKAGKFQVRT

Compound in the first experiment: Nc1nc2c(ncn2[C@@H]2O[C@H](COP(=O)(O)OP(=O)(O)OP(=O)(O)O)[C@@H](O)[C@H]2O)c(=O)[nH]1 [guanosine triphosphate]
The experiment in a line: NP40-soluble protein abundance relative to vehicle (solubility fold change) (ratio); higher = more soluble protein in presence of GTP. Particulars: concentration: 8mM. Summed up:
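Eight concentrations, 0.1 to 10 mM, were tested on Jurkat crude lysate for 10 min at room temperature and then 3 min at 37 °C, in three independent experiments. The lysate was solubilised with 0.8% NP40 and benzonase, ultracentrifuged, and the supernatant TMT-labelled for LC-MS/MS. Each value is the fold change against the detergent-processed vehicle in its own replicate, from vsn-normalised intensities.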
For TPMT (UniProt P51580), the NP40-soluble protein abundance was determined as 0.87 ± 0.066. As to UniProt P57772 and related entries, the NP40-soluble protein abundance was found to be 1.05 ± 0.052. As to UniProt P52209 and related entries, the NP40-soluble protein abundance was 0.865 ± 0.044. On the same count and under the same terms, next, UniProt P62829: 0.769 ± 0.13; UniProt P56134 and related entries: 1.05 ± 0.11. Still for that read-out and setting: next, CPT1A (UniProt P50416): 1.03 ± 0.055. On the same count and under the same terms, next, UniProt P55769: 1.33 ± 0.11; UniProt P62269: 0.731 ± 0.2.

For DSTN (UniProt P60981), the NP40-soluble protein abundance came to 0.885 ± 0.024.

The same experiment, now with this note: concentration: 10mM.
In the case of SRP54 (UniProt P61011), the NP40-soluble protein abundance is 1.01 ± 0.023. The same measure, in the same setting: next, UniProt P61160 and related entries: 0.883 ± 0.048; UniProt P53367 and related entries: 0.898 ± 0.038. In the case of UniProt P61026, the NP40-soluble protein abundance is 0.761 ± 0.078. Still for that read-out and setting: next, UniProt P82970 and related entries: 1.03 ± 0.12; UniProt P98095 and related entries: 1.06 ± 0.023.

UniProt P84103 and related entries: the NP40-soluble protein abundance turned out to be 1.11 ± 0.053. Still for that read-out and setting: next, UniProt P78527: 1.1 ± 0.19. Still for that read-out and setting: next, VASP (UniProt P50552): 0.932 ± 0.098; UniProt P55039 and related entries: 0.849 ± 0.11. Still for that read-out and setting: next, UniProt P61163: 1.07 ± 0.13; UniProt P63151 and related entries: 0.8766 ± 0.0055; MRPS15 (UniProt P82914): 1.49 ± 0.46.

On to GTF2A1 (UniProt P52655), for which the NP40-soluble protein abundance stood at 0.97 ± 0.028. As for RAB2A (UniProt P61019), the NP40-soluble protein abundance came out at 0.821 ± 0.065.

For the target COPB1 (UniProt P53618), the NP40-soluble protein abundance was 0.991 ± 0.074. Still for that read-out and setting: next, UniProt P63272: 0.937 ± 0.0094; RPL10A (UniProt P62906): 0.569 ± 0.078; UniProt P55265 and related entries: 1.13 ± 0.069. For the target UniProt P55060 and related entries, the NP40-soluble protein abundance was 0.9 ± 0.036. Turning to UniProt P61962, the NP40-soluble protein abundance was found to be 0.964 ± 0.03. In the case of MAT1A (UniProt Q00266), the NP40-soluble protein abundance is 0.937 ± 0.1. For the target UniProt P62081, the NP40-soluble protein abundance amounted to 1.03 ± 0.18. On the same count and under the same terms, next, YBX1 (UniProt P67809): 1.09 ± 0.11; UniProt P62249: 0.788 ± 0.26; UniProt P78406 and related entries: 1.11 ± 0.075.

With AP3M2 (UniProt P53677), the NP40-soluble protein abundance came out at 0.883 ± 0.11. Same read-out and setting: next, UniProt P57081 and related entries: 0.965 ± 0.059; TPMT (UniProt P51580): 0.832 ± 0.1. On the same count and under the same terms, next, UniProt P57772 and related entries: 1.04 ± 0.032; UniProt P52209 and related entries: 0.833 ± 0.047.

Take UniProt P62829: the NP40-soluble protein abundance was 0.839 ± 0.15.

Regarding UniProt P56134 and related entries, the NP40-soluble protein abundance worked out at 0.934 ± 0.022. On the same count and under the same terms, next, CPT1A (UniProt P50416): 1.02 ± 0.098; UniProt P55769: 1.63 ± 0.15.

Take UniProt P62269: the NP40-soluble protein abundance was found to be 0.83 ± 0.26. DSTN (UniProt P60981): the NP40-soluble protein abundance was 0.907 ± 0.045.

The values are drawn from the supplement of paper PMC6411743.
